Values joined by “and” are separate entries in the source; they are usually repeats but may differ in a detail not shown here. Identical values can stand only once. The whole screen tested about 580,000 compounds, of which about 6,100 (1.1%) were called active. This list was built around the results that the source calls inconclusive (neither active nor inactive); the mix of calls is not that of the screen. Calls follow the shape of the dose curve; as a rule, active = well fitted inhibition curve with a large enough effect; inconclusive = small, poorly fitted or top-dose-only effect, or another doubt; inactive = no such curve, though single readings can be large or run the other way. Potencies beside an inconclusive call are fits to weak or partial responses and may not hold up.
Target: Polyunsaturated fatty acid lipoxygenase ALOX12 (Homo sapiens) (UniProt P18054)
Assay: Primary qHTS assay for inhibitors of human arachidonate 12S-lipoxygenase (ALOX12): Round 2
Conditions: purified 12hLO, xylenol orange hydroperoxide absorbance; activity change, negative = inhibition: at 108 µM (top of the series) unless noted
In short: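 Purified human 12hLO at 150 nM in 25 mM Hepes, 0.01% Triton X-100, pH 7.0, preincubated 15 min at room temperature with compound. Reaction started with 40 uM arachidonic acid, 30 min at room temperature. Hydroperoxide measured by Fe-xylenol orange, 573/405 nm absorbance ratio.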
% is scaled to controls: 0 for no effect and ±100 for the full control effect; potency is read from the fitted curve at half-maximal effect.

Amino acid sequences for entries named in this document (tags omitted).
UniProt P18054, whole entry, looked up: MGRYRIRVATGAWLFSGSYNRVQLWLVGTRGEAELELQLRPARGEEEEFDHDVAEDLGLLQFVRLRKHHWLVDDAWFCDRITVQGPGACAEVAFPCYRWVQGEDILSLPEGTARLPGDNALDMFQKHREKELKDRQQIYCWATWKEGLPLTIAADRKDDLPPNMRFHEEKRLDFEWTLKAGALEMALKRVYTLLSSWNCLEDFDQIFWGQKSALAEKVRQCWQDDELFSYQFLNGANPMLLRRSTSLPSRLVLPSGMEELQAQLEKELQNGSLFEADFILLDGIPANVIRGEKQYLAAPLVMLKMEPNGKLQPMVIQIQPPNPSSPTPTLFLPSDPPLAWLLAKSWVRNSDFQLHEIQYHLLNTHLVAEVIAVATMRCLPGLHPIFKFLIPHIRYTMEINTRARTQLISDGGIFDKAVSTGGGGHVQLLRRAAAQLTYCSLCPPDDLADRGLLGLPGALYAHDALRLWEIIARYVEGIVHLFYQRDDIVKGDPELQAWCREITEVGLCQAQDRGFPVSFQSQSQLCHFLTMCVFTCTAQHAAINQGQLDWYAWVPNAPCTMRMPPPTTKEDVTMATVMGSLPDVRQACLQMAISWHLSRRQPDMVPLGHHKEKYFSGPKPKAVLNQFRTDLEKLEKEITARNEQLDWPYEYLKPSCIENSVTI

| Structure (SMILES) | Potency | activity change, negative = inhibition |
| --- | --- | --- |
| COc1ccc(S(=O)(=O)N(C)[C@H]2C[C@H]3c4cc(-c5ccccc5)ccc4CCN3C(=O)[C@H]2[C@H](C)O)cc1 | inconclusive: 141 µM [inhibitor, partial curve, poor fit] |  |
| CCn1c(SCC(=O)Nc2cccc(F)c2)nnc1-c1cc2cc(Br)ccc2o1 | inconclusive: 50.1 µM [inhibitor, partial curve, poor fit] |  |
| Cc1ccc(-c2nc(NCC3CCCO3)sc2C)cc1 (stereo not drawn) | inconclusive: 39.8 µM [inhibitor, single point] |  |
| Cc1ccc(-c2n[nH]c3c2C(c2cccc(O)c2)N(c2ccc(C(=O)O)cc2)C3=O)cc1 (stereo not drawn) | inconclusive: 28.2 µM [inhibitor, partial curve, poor fit] and inconclusive: 50.1 µM [inhibitor, partial curve, poor fit] |  |
| Cc1ccc(-c2cc(C(=O)N(Cc3ccc(F)cc3)Cc3ccco3)no2)cc1 |  | inactive: -29.2% |
| CC(CCN1CCC(C(O)(c2ccccc2)c2ccccc2)CC1)Oc1cc(F)cc(C#N)c1 (stereo not drawn) | inconclusive: 44.7 µM [inhibitor, partial curve, poor fit] |  |
| CC(CCc1ccccc1)NC(=O)CCC(=O)N1CCC(C(=O)O)CC1 (stereo not drawn) | inconclusive: 56.2 µM [inhibitor, single point] |  |
| CCC1(N2CCN(C)CC2)CCN(S(=O)(=O)c2ccccc2)C1 (stereo not drawn) |  | inactive: 44.3% |
| COc1cc(C2SC[C@H]3C(=O)N(c4ccccc4)C(=O)N23)cc(OC)c1OC (stereo partly drawn) |  | inactive: -2.67% |
| CC1CCN(CCC(=O)Nc2ccc(F)c(F)c2)CC1 | inconclusive: 44.7 µM [inhibitor, partial curve, poor fit] |  |
| O=C(OCC1CCCN2CCCCC12)c1ccc2c(c1)OCO2 (stereo not drawn) | inconclusive: 35.5 µM [inhibitor, partial curve, poor fit] |  |
| CSc1ccc(C2=CC(=O)C[C@H](c3ccc(F)cc3)C2)cc1 |  | inactive: -48.3% |
| Cc1ccccc1-c1nc(CN2CCC(C(=O)NCCc3ccccc3)CC2)c(C)o1 |  | inactive: 0% |
| COc1ccc(-c2nc(N)sc2C2(O)C(=O)Nc3c(Br)cc(F)cc32)cc1OC (stereo not drawn) | inconclusive: 35.5 µM [inhibitor, partial curve, poor fit] |  |
| O=C(Cc1cccs1)N1CCSCC1 | inconclusive: 35.5 µM [inhibitor, partial curve, poor fit] |  |
| COc1cccc(N(CC(=O)N2CCOCC2)S(C)(=O)=O)c1 |  | inactive: 111% |
| CN(C)CC1(O)CCC2(CCN(C(=O)C3CCCC3)CC2)CC1 |  | inactive: 51.3% |
| COc1ccc(C(=O)OCC(=O)Nc2nnc(-c3ccccc3)o2)cc1 |  | inactive: 15% |
| O=C(NCCc1nc(-c2cccnc2)n[nH]1)C1CNCCO1 (stereo not drawn) | inconclusive: 7.08 µM [inhibitor, full curve, poor fit] |  |
| NC(=S)n1[nH]c(-c2ccc([N+](=O)[O-])cc2)c(N=Nc2cccc([N+](=O)[O-])c2)c1=O | inconclusive: 20 µM [inhibitor, partial curve, poor fit] |  |
| Cc1cc(C)nc(SCNC(=O)c2ccc(Cl)cc2)n1 |  | inactive: 26.2% |

| Structure (SMILES) | Potency | activity change, negative = inhibition |
| --- | --- | --- |
| CCOc1ccc(NC(=O)c2ccco2)cc1S(=O)(=O)N1CCCC1 | inconclusive: 35.5 µM [inhibitor, partial curve, poor fit] |  |
| CC(=O)N1CC(=O)N2[C@@H](CO)[C@H](c3ccc(Br)cc3)[C@@H]2C1 | inconclusive: 112 µM [inhibitor, single point] |  |
| Nc1ccc(-c2nc3ccc(N)cc3o2)cc1 |  | inactive: -8.47% |
| C[C@H]1CN([C@@H](C)CO)C(=O)CCCn2cc(nn2)CO[C@@H]1CN(C)S(=O)(=O)c1cccs1 | inconclusive: 3.98 µM [inhibitor, full curve, poor fit] |  |
| CCOc1ccc(OCc2cccc(C(=O)Nc3ccc(CN4CCCCC4)cc3)c2)cc1 | inconclusive: 79.4 µM [inhibitor, single point] |  |
| CCOc1ccc(NC(=O)C(C)Oc2cc(C)cc(C)c2)c2cccnc12 (stereo not drawn) | inconclusive: 141 µM [inhibitor, partial curve, poor fit] |  |
| CN(C)C(=O)c1ccc(-c2ccc3ncnc(NCc4ccccc4)c3c2)cc1 | inconclusive: 50.1 µM [inhibitor, partial curve] |  |
| O=C1CCC(C(=O)OCC(=O)N2N=C3/C(=C\c4ccccc4)CCCC3C2c2ccccc2)N1 (stereo not drawn) | inconclusive: 50.1 µM [inhibitor, partial curve, poor fit] |  |
| S=c1nc(-c2ccc(Cl)cc2)[nH][nH]1 | inconclusive: 112 µM [inhibitor, partial curve, poor fit] |  |
| CCCCCCCCCOc1ccc(C(=O)c2ccccc2)cc1 |  | inactive: 19.7% |
| c1ccc(CNCC(c2ccccc2)N2CCCC2)cc1 (stereo not drawn) | inconclusive: 39.8 µM [inhibitor, partial curve, poor fit] |  |
| O=C(O)C1CCc2nnc(C3CCN(C(=O)c4ccc(F)cc4)C3)n21 (stereo not drawn) | inconclusive: 44.7 µM [inhibitor, single point] |  |
| O=C1NCCCCCCN(Cc2ccncc2)[C@@H]2CN(S(=O)(=O)c3cccc(F)c3)CC[C@H]12 | inconclusive: 5.01 µM [inhibitor, full curve, poor fit] |  |
| C[C@@H]1C(=O)O[C@H]2[C@H]1CC[C@@]1(C)Cc3sc(NC(=O)Nc4ccc(Oc5ccccc5)cc4)nc3[C@@H](C)[C@H]21 | inconclusive: 15.8 µM [inhibitor, full curve] |  |
| COc1ccc2c(c1)c(C(=O)N/N=C/c1ccc(Br)cc1)c(C)n2C | inconclusive: 100 µM [inhibitor, partial curve, poor fit] |  |
| C=CCOc1ccc(/C=C(\C#N)C(=O)Nc2ccccn2)cc1OC | active: 10 µM |  |
| COC(=O)[C@H]1[C@H]2C[C@@H]3c4[nH]c5cc(OC)ccc5c4CCN3C[C@H]2C[C@@H](OC(=O)/C=C/c2ccc(O)c(OC)c2)[C@@H]1OC |  | inactive: -10.9% [at 22.9 µM] |
| Cc1[nH]c2ccccc2c1C(c1ccc(Cl)c(Cl)c1)c1c(C)[nH]c2ccccc12 | inconclusive: 12.6 µM [inhibitor, full curve, poor fit] |  |
| Cc1nc2sc3c(c2c2nc(C(=O)NCCN(C)C)nn12)CCCC3 | inconclusive: 100 µM [inhibitor, single point] |  |
| CC(=O)c1c(C)oc2c(Br)cc(NS(=O)(=O)c3ccc(Br)cc3)cc12 | active: 44.7 µM |  |
| CCc1c(C(=O)NC(C)C2CCCO2)csc1C (stereo not drawn) | inconclusive: 1.26 µM [inhibitor, full curve, poor fit] |  |

| Structure (SMILES) | Potency | activity change, negative = inhibition |
| --- | --- | --- |
| CCC(NC(=O)c1cc(COc2cncc(Cl)c2)on1)c1ccc(C)cc1 (stereo not drawn) | inconclusive: 141 µM [inhibitor, single point] |  |
| CN1CCN(C(=O)Cn2c(-c3cccs3)cc3cc(Cl)ccc32)CC1 | inconclusive: 39.8 µM [inhibitor, partial curve, poor fit] |  |
| Cc1ccc(C(=O)Nc2ccc(S(=O)(=O)O)c3cc(S(=O)(=O)O)cc(S(=O)(=O)O)c23)cc1NC(=O)c1cccc(NC(=O)Nc2cccc(C(=O)Nc3cc(C(=O)Nc4ccc(S(=O)(=O)O)c5cc(S(=O)(=O)O)cc(S(=O)(=O)O)c45)ccc3C)c2)c1 | inactive |  |
| Cc1ccc(-c2nnc(-c3ccc(NC(=O)Cc4cccs4)cc3)o2)cc1 | inconclusive: 5.01 µM [inhibitor, full curve, poor fit] |  |
| CC(C)NC(=O)NC(=O)COC(=O)C1COc2ccccc2O1 (stereo not drawn) | inconclusive: 141 µM [inhibitor, single point] |  |
| COCCn1cnc2c1c(=O)n(CC(=O)Nc1ccc(OC(F)F)cc1)c(=O)n2Cc1ccccc1 | inconclusive: 7.94 µM [inhibitor, single point] |  |
| O=C(CCn1cnc2ccccc2c1=O)Nc1nc(-c2ccc(Br)cc2)cs1 | inconclusive: 44.7 µM [inhibitor, partial curve, poor fit] |  |
| O=C(CCc1nnn2c1CNCC2)N1CCOCC1 | inconclusive: 4.47 µM [inhibitor, full curve, poor fit] |  |
| CC1(C(=O)NCc2ccccc2)Cn2nc(-c3ccccc3)cc2C(=O)N1CCc1ccco1 (stereo not drawn) | inconclusive: 100 µM [inhibitor, single point] |  |
| COC(=O)c1sc(S(=O)(=O)N2CCCCC2)c(C(=O)OC)c1C |  | inactive: -9% |
| Cc1ccc(NC(=O)CNC(=O)Cn2c(C)cc3ccccc3c2=O)cc1F |  | inactive: -23.1% |
| S=C(NNc1ccnc2cc(Cl)ccc12)Nc1ccc(Cl)cc1Cl | inconclusive: 70.8 µM [inhibitor, partial curve, poor fit] |  |
| O=C(Nc1nc(-c2cccs2)cs1)c1ccc(Cl)cc1 | inconclusive: 89.1 µM [inhibitor, partial curve, poor fit] |  |
| COc1ccc(N2C(=O)CN=C2Nc2nc(C)cc(C)n2)cc1OC |  | inactive: -24.3% |
| COc1ccccc1NC(=S)NC(NC(C)=O)C(Cl)(Cl)Cl (stereo not drawn) | inconclusive: 35.5 µM [inhibitor, single point] |  |
| O=C1CSC(=S)N1N=Cc1ccc(Cl)s1 | inconclusive: 44.7 µM [inhibitor, partial curve, poor fit] |  |
| Clc1cccc(NCc2nnc3n2CCCCC3)c1 |  | inactive: -8.71% |
| O=C(Nc1ccc(Cl)cc1)C1=Cc2ccccc2OC1 |  | inactive: 434% |
| O=C(NCCCN=C1NS(=O)(=O)c2ccccc21)c1ccc(S(=O)(=O)N2CCCCC2)cc1 |  | inactive: -6.61% |
| Cc1cc(C)n(-c2cc(Cl)ccc2[N+](=O)[O-])n1 |  | inactive: 3.21% |
| Cc1cccc(N2CCN(Cc3ccc([N+](=O)[O-])o3)CC2)c1C | inconclusive: 6.31 µM [inhibitor, full curve, poor fit] |  |

— PubChem BioAssay AID1671190 (National Center for Advancing Translational Sciences (NCATS), 2021)
